What all share (experiment): co-IP
Assay [1] deals with endogenous STING (human (endogenous in HBCx-3 and HEK293)) (UniProt Q86WV6).
Assay [2] has as its target untagged STING ectopically expressed in MCF7 cells (human) (UniProt Q86WV6).
The target in assay [3] is Flag-STING-HA (Stimulator of Interferon Genes) (human) (UniProt Q86WV6).
The target in assay [4] is DNA-PK catalytic subunit (human (endogenous in MCF7, HBCx-3 and HEK293)) (UniProt P78527).

Amino acid sequences for entries named in this document (tags omitted).
UniProt Q86WV6: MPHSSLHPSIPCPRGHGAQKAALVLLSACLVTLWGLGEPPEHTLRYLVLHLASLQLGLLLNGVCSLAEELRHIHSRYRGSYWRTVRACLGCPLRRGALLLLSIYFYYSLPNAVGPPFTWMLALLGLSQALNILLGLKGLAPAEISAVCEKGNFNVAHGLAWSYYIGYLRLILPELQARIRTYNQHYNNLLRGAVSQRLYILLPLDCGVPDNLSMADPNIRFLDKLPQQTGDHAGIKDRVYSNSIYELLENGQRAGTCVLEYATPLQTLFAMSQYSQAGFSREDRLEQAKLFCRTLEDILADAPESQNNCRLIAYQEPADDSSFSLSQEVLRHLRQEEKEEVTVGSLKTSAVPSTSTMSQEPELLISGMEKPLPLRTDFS
UniProt P78527: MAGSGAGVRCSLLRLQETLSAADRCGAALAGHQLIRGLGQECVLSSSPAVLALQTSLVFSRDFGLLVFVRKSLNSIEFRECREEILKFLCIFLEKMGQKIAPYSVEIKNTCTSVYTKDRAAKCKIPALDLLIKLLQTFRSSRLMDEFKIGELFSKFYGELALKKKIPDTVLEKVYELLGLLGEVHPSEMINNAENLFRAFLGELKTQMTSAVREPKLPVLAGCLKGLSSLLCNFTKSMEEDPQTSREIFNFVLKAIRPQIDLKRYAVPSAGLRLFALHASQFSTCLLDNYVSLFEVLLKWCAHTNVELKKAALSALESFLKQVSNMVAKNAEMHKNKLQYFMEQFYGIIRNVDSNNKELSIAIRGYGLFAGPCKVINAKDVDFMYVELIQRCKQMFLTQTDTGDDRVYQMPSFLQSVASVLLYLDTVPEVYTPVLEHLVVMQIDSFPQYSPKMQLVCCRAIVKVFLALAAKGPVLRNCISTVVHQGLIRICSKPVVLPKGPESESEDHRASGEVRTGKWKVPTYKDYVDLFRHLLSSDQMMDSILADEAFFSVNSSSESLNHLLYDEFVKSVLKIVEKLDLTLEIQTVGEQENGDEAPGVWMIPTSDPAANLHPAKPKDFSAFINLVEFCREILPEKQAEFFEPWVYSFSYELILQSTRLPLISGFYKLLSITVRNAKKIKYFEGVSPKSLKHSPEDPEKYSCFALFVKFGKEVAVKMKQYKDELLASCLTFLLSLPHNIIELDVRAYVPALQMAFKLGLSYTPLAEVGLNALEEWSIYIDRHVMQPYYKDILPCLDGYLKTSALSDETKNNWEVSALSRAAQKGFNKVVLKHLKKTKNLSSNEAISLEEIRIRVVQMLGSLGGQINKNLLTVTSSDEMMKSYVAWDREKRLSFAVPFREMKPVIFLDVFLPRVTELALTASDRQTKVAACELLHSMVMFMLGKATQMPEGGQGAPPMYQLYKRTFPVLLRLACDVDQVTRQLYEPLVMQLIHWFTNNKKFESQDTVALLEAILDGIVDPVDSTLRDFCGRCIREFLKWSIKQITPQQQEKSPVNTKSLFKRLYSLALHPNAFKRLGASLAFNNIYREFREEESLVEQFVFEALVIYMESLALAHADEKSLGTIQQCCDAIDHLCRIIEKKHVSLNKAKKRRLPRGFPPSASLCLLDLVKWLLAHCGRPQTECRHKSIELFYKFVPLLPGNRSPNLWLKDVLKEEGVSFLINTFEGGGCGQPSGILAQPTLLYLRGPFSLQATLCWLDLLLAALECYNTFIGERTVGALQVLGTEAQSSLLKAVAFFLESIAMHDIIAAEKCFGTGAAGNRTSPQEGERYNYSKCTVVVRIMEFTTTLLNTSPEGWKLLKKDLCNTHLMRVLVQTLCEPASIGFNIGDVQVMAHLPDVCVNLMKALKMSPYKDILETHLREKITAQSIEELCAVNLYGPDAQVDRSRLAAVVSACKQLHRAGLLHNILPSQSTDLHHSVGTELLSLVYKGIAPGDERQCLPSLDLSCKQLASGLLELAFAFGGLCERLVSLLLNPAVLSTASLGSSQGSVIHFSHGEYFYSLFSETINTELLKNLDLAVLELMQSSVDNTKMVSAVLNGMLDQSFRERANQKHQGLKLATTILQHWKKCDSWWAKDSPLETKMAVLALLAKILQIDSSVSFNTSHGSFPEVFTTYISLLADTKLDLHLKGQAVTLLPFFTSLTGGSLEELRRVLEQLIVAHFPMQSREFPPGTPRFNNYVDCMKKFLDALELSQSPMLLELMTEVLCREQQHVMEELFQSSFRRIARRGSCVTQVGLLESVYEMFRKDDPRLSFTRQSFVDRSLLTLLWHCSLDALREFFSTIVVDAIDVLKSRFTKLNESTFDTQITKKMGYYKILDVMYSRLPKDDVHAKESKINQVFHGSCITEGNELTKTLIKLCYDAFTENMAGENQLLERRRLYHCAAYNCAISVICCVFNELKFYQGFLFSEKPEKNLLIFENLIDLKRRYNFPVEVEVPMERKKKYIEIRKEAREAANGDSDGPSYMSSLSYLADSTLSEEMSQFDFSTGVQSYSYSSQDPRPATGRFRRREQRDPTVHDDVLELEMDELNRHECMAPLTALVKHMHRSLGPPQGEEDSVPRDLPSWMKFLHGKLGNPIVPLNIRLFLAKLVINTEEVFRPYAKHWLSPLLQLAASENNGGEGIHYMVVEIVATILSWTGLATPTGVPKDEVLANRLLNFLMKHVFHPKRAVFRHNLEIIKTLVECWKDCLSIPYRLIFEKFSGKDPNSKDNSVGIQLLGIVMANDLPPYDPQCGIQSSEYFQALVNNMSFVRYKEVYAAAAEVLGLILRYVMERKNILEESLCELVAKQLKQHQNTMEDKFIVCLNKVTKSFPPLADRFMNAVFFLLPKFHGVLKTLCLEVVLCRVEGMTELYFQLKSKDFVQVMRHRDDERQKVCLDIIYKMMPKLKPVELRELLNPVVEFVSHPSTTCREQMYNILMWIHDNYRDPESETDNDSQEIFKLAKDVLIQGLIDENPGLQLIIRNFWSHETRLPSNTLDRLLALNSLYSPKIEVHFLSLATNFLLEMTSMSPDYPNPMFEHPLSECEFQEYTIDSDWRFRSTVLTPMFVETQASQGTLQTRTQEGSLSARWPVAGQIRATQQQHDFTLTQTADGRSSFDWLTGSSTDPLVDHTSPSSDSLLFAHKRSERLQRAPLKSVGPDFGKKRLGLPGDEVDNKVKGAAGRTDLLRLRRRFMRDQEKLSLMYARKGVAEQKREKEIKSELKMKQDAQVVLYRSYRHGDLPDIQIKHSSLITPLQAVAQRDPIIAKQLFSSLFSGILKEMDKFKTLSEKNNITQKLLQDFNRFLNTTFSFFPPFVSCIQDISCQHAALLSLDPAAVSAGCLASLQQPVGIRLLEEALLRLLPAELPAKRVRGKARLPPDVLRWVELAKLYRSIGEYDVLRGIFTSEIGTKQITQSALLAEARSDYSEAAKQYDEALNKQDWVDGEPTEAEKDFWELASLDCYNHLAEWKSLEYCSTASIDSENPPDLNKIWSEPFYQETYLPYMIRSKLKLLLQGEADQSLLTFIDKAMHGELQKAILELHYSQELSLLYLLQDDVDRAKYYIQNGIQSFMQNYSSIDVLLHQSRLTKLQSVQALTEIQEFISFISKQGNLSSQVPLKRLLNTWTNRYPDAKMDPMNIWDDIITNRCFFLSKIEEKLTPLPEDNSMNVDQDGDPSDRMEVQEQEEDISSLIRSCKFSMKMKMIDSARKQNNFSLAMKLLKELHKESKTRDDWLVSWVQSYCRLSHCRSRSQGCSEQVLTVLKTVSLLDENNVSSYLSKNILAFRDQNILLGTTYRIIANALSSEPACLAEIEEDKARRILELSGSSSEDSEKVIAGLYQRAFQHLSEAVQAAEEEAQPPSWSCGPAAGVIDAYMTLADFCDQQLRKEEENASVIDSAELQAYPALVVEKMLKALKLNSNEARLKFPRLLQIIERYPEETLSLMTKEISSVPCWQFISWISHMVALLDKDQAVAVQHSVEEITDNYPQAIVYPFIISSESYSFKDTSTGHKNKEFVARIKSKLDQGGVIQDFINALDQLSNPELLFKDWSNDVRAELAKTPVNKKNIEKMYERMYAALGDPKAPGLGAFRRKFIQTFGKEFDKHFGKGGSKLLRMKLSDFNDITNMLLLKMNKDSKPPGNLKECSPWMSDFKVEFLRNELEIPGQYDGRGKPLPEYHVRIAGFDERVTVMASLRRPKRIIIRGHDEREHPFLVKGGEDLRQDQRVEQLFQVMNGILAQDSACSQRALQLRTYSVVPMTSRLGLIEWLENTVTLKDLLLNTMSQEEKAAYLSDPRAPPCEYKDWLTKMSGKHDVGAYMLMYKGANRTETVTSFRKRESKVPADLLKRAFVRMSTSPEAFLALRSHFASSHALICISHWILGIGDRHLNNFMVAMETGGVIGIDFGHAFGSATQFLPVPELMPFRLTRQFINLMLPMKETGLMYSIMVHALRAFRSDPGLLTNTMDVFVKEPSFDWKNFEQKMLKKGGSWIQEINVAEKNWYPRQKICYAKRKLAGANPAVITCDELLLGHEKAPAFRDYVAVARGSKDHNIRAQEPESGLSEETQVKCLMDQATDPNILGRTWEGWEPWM
UniProt P13010: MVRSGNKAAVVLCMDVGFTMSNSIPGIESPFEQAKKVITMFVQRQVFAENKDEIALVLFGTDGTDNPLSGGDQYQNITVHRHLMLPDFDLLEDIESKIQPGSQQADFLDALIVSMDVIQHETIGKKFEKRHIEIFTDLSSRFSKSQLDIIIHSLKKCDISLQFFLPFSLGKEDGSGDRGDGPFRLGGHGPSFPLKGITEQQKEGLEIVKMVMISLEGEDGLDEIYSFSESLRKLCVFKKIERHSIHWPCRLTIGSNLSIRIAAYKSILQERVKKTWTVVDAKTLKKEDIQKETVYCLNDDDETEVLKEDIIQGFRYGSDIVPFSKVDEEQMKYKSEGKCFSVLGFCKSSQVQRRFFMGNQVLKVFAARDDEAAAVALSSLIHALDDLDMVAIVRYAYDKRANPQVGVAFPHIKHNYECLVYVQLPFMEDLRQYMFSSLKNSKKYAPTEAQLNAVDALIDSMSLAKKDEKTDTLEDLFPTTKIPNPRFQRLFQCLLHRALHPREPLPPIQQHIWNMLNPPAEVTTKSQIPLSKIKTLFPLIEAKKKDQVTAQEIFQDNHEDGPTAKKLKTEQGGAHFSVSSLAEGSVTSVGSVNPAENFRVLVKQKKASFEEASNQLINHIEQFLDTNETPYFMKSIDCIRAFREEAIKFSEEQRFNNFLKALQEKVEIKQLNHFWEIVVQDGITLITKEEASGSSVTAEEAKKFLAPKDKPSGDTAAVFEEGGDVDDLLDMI
UniProt P12956: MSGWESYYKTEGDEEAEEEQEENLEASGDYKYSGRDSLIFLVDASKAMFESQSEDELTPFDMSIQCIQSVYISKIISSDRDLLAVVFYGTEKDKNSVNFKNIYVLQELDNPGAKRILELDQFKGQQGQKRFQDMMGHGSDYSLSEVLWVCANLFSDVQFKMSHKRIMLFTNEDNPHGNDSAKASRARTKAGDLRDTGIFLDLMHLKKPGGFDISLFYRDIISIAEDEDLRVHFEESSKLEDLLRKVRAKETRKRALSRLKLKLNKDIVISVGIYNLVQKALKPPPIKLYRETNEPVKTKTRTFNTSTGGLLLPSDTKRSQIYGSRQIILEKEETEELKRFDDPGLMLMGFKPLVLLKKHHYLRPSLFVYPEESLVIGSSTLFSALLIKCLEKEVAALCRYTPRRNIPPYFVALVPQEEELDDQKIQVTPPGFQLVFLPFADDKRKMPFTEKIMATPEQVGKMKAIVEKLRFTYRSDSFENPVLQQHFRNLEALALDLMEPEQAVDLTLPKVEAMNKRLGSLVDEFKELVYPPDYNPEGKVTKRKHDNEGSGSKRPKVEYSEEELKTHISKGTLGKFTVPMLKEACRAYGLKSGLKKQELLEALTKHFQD

These are yes or no findings as the source states them, for the method shown. In cells and extracts the contact can be indirect. Some binding calls cover weakened binding; strength is not graded here.

On to Ku80 (from UniProt P13010 1-732), for which the binding result in assay [1] and in assay [2] was “binds” throughout.
“DNA-PK catalytic subunit (from UniProt P78527 1-4128)”: the binding result in assay [3], in assay [1] and in assay [2] was “binds” each time.
Take Ku70 (from UniProt P12956 1-609): the binding entry in assay [1] and in assay [2] was “binds” in each case.
For the substance “untagged STING ectopically expressed in MCF7 cells (from UniProt Q86WV6 1-379)”, in assay [4], the binding result is “binds”.
Same read-out and setting: as for “endogenous STING (from UniProt Q86WV6 1-379)”, the entry is “binds”.

The record behind these values is paper doi:10.1101/2020.07.11.196790.
